Data as given in the supplement of paper PMC11732987, “Enantioselective OTUD7B fragment discovery through chemoproteomics screening and high-throughput optimisation” (Communications Chemistry, 2025).
This is one part of the list. The data scatter; read single values as rough.

The chains behind the UniProt entries cited, without tags or fusion partners. Where a name states a change or a piece, a line headed by the entry shows the natural chain unless it says otherwise.
UniProt P17812: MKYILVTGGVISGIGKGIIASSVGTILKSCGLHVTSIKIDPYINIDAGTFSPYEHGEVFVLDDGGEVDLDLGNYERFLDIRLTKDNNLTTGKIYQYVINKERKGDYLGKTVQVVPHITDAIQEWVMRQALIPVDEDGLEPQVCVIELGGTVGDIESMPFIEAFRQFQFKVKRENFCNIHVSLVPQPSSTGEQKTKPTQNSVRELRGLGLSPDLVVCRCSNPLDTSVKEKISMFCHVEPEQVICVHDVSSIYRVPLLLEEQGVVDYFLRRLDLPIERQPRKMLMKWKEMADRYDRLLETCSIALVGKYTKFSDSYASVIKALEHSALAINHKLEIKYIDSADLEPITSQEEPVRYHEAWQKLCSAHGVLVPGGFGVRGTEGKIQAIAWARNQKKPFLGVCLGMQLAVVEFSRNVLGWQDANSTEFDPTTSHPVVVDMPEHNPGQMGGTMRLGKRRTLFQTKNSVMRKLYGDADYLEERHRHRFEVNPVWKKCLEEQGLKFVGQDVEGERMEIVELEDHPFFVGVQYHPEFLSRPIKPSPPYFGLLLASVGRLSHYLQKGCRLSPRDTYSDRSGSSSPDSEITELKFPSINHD
UniProt O75534: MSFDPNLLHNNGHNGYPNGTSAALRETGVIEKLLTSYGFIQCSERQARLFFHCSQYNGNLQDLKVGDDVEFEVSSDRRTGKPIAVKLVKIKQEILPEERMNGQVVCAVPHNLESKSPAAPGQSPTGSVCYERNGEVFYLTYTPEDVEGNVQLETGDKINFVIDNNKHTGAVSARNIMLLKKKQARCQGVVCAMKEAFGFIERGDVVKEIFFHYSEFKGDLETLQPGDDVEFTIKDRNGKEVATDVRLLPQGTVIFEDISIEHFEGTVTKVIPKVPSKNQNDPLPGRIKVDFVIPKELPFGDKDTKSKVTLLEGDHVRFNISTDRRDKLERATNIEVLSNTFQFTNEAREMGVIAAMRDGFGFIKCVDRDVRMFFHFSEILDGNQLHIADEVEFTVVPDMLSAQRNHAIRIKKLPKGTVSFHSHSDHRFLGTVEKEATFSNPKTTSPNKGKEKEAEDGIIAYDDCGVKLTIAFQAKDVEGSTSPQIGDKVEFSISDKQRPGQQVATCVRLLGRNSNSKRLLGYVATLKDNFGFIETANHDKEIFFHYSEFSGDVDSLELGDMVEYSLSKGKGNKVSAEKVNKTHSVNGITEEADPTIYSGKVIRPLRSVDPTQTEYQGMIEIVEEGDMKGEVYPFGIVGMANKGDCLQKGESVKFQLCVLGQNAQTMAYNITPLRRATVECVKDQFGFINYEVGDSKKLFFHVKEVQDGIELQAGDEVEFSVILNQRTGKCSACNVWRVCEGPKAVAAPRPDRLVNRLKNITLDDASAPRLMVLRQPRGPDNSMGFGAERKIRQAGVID
UniProt Q7Z4W1: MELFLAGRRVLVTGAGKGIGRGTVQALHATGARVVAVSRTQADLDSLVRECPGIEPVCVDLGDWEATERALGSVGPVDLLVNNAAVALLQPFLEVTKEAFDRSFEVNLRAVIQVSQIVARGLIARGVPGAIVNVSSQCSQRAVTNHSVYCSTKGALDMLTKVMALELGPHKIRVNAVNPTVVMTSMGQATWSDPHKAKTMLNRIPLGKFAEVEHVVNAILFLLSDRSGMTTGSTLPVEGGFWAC
UniProt Q14999: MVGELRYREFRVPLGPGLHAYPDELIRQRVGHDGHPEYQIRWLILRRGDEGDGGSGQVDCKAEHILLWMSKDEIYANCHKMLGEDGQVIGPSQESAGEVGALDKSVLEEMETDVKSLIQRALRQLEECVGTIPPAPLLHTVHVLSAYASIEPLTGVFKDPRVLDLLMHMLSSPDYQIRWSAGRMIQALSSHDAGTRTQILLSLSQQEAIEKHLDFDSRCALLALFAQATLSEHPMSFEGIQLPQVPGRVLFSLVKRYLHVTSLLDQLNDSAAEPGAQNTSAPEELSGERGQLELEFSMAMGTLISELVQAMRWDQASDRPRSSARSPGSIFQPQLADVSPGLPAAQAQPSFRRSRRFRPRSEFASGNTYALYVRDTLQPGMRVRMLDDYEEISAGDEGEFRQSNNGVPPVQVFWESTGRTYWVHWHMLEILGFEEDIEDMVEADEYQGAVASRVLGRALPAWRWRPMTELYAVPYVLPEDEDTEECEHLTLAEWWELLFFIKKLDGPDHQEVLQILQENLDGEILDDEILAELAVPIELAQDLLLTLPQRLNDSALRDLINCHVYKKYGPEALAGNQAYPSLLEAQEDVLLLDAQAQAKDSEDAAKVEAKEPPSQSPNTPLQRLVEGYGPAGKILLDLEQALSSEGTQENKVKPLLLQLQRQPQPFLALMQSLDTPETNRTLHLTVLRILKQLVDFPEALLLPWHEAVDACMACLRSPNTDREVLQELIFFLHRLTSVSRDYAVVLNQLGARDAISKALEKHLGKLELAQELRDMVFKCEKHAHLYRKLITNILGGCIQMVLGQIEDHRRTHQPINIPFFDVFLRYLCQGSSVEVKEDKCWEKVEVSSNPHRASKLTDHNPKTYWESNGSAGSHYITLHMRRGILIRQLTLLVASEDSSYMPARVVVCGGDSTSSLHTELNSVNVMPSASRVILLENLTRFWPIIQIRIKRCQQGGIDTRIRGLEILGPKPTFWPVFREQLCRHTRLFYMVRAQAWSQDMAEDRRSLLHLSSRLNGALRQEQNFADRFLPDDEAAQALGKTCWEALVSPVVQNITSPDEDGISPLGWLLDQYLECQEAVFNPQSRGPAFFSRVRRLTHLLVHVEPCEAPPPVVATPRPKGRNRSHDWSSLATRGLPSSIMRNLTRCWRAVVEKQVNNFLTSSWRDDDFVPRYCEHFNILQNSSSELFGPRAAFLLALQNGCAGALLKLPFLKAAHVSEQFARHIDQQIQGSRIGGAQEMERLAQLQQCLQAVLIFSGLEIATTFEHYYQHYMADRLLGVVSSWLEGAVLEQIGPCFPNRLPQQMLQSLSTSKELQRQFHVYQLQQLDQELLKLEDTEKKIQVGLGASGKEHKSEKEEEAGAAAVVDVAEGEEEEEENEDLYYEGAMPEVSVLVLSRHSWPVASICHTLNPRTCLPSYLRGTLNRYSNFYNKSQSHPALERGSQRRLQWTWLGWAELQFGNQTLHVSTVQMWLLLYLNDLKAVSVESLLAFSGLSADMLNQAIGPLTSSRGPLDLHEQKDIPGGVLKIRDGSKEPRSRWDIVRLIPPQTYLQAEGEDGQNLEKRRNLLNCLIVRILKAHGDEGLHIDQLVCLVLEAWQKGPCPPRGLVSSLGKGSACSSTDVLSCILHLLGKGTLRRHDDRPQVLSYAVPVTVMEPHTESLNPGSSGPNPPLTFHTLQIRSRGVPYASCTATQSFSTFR
UniProt Q8NHQ9: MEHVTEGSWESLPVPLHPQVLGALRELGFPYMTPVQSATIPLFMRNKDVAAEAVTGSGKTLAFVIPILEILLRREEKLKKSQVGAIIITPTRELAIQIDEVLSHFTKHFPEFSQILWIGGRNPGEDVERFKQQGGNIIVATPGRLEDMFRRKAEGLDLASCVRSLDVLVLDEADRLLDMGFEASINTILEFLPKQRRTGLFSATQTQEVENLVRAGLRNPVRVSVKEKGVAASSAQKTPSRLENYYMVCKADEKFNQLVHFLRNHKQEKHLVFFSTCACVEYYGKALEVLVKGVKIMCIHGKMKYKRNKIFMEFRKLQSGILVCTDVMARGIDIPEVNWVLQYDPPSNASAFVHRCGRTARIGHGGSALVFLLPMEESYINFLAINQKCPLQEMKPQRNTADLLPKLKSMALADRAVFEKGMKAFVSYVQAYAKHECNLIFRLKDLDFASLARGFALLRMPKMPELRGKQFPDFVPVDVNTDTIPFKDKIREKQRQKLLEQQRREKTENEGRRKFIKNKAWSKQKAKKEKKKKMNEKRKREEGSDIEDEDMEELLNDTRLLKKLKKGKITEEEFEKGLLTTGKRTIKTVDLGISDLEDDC
UniProt Q6PI48: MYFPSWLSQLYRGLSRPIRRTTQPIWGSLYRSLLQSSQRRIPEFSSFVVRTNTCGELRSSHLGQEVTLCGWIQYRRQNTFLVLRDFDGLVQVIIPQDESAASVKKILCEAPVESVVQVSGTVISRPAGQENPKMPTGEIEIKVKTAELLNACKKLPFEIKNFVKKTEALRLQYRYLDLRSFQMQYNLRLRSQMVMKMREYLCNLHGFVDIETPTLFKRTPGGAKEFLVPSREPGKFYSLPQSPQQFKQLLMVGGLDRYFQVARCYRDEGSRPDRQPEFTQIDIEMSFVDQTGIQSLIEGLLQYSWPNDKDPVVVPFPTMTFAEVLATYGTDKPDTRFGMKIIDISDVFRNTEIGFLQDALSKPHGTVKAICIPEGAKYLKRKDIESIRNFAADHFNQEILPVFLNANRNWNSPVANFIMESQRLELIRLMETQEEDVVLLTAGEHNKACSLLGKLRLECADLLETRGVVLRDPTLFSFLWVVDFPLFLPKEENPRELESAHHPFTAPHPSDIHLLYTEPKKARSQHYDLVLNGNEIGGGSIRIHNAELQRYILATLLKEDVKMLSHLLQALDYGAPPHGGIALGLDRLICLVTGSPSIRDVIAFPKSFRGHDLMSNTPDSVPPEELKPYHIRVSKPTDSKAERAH

How the values were obtained:
[1] = compound: ClCC(=O)N[C@@H]1CCCc2ccccc12; assay: log2 mean competition ratio of IA-DTB cysteine labelling (DMSO/compound) (log2 ratio); higher = stronger cysteine engagement by compound; details: treatment time: 4 h, cell line lysate: HEK293T
Procedure: (§1)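 IA-DTB competitive cysteine chemoproteomics in HEK293T RIPA lysate. Lysates were treated with compound 29 or 30 at 50 or 200 µM for 4 h, then IA-DTB (500 µM, 1 h), trypsin-digested, NeutrAvidin-enriched and analysed by diaPASEF. Competition ratio = intensity DMSO / intensity compound (n=4 treated, n=64 DMSO); binding: mean log2 CR ≥ 1 and p ≤ 0.05 plus QC filters. Target is the cysteine site.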

[2] = compound: ClCC(=O)N[C@H]1CCCc2ccccc12; assay: as above; details: treatment time: 4 h, cell line lysate: HEK293T
Procedure: as §1

Row | Target | log2 mean competition ratio ([1]; 50 µM) | log2 mean competition ratio ([1]; 200 µM) | log2 mean competition ratio ([2]; 50 µM) | log2 mean competition ratio ([2]; 200 µM)
1 | CTPS1 C216 (UniProt P17812) | 0.186 | 0.1 | 0.201 | 0.325
2 | CSDE1 C506 (UniProt O75534) | -0.0121 | -0.115 | 0.156 | -0.138
3 | DCXR C138 (UniProt Q7Z4W1) | 0.139 | -0.0357 | -0.336 | 0.0528
4 | CUL7 C60 (UniProt Q14999) | 0.261 | -0.0351 | -0.0521 | 0.226
5 | DDX55 C161 (UniProt Q8NHQ9) | 0.00854 | 0.109 | -0.0899 | 0.138
6 | DARS2 C449 (UniProt Q6PI48) | 0.536 | -0.274 | 0.221 | -0.153
7 | DCLRE1A C649 | 0.0503 | 0.211 | -0.107 | -0.0237
